Source: patent US10024845B2, “Methods for determining modulators of insect transient receptor potential V (TRPV) channel” (BASF SE, priority 2013, dated 2018)
At least one structure is not confirmed: it was looked up by name or label, or the drawing left a doubt.

By UniProt entry, the sequences of proteins in these tests, tags left out.
UniProt Q9EPK8, whole entry: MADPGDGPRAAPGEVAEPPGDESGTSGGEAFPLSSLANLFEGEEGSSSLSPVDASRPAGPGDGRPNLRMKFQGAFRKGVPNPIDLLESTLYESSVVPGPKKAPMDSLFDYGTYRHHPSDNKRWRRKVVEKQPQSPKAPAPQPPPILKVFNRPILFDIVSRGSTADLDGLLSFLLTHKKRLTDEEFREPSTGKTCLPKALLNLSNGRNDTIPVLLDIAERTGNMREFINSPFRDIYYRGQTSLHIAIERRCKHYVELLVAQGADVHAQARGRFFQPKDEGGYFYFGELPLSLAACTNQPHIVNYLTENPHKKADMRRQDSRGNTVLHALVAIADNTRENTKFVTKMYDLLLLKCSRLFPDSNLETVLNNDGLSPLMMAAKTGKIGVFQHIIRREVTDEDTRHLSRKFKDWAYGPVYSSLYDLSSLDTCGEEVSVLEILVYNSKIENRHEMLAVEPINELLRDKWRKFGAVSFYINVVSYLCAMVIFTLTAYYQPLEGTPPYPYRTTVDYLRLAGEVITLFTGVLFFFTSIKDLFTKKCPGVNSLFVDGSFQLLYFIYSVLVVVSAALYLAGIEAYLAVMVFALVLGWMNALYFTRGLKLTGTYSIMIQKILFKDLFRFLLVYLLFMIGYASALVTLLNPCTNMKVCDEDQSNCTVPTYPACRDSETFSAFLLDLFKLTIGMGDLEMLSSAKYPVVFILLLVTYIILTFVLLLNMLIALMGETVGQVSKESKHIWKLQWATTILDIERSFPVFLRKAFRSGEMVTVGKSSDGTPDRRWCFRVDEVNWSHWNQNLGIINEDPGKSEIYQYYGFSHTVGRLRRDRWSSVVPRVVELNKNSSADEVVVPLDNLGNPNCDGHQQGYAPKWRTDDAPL

Biological target: mouse TRPV4 (mTRPV4) (Mus musculus, UniProt Q9EPK8)
Assay: Ca2+ mobilization (FLUO4, FLIPR) in CHO-K1 cells expressing mTRPV4
Type: cell-based
Details: single high dose 20 μM

SMILES: CC(=O)OCC[N+](C)(C)C [Acetylcholine]
- Response of cells (fluorescence units), mTRPV4 cells: 190 fluorescence units
